According to patent US20160074468A1 (GENUS ONCOLOGY, published 2016):
Results are given in words; binding and its absence hold for the method and conditions named. Binding seen in cells or lysates may run through a third protein. Some entries that bind do so weakly or less than the wild type.

Protein sequences, listed by entry. Tags and fused reporters are not part of them. Lines headed by an entry give the natural chain unless they say otherwise; changes in a name come on top.
UniProt P15941: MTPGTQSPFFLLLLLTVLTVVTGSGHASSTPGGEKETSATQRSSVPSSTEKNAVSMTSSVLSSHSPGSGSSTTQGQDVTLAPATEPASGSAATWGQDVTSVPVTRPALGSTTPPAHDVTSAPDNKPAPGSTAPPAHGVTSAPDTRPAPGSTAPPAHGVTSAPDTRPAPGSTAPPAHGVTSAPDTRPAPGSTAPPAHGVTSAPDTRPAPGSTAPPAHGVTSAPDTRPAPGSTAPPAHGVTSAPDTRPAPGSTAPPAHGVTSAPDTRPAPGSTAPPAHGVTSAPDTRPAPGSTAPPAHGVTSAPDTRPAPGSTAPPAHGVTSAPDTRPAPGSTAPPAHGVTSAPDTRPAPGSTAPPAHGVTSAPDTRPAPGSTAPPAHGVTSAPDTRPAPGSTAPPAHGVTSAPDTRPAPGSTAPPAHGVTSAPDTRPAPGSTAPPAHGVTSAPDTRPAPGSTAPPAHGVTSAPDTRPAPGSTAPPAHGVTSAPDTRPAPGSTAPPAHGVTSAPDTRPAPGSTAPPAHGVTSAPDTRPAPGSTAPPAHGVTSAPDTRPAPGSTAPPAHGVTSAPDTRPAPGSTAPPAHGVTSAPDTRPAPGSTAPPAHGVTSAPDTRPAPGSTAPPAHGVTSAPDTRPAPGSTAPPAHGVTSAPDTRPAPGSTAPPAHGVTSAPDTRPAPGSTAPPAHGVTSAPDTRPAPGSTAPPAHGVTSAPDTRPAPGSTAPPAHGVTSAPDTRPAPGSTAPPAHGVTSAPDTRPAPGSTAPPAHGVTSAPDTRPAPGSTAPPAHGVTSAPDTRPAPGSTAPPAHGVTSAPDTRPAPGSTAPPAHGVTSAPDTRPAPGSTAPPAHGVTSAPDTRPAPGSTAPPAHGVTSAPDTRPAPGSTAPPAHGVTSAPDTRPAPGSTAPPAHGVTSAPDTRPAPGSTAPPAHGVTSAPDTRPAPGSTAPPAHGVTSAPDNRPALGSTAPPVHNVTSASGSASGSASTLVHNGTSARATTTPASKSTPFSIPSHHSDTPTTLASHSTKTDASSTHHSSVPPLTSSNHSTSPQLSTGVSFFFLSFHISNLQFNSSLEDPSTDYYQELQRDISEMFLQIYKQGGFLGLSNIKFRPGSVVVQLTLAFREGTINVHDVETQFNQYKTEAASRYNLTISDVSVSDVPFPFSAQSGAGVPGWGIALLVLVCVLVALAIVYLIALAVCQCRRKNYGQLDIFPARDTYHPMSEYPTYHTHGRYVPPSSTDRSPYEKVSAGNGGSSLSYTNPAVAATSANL

What was measured:
[1] = molecular target: T1, HER2/ERBB2 receptor tyrosine kinase (human, UniProt P04626 23-1255); assay: GST-MUC1-CD pull-down from SKBR3 lysates (similar results told for BT474), anti-HER2 immunoblot (FIG. 2A)
T1 construct: whole, on cells; Endogenous HER2 in cell lysates, detected by anti-HER2 immunoblot of precipitates or GST adsorbates; also called Neu; CD340

[2] = molecular target: T1, HER2/ERBB2 receptor tyrosine kinase; assay: GST pull-down from cell lysates (discussion of the results)

For “GST-MUC1-CD fusion protein (from UniProt P15941 1184-1255)”, the binding [1] was “binds” and the binding [2] was “binds”.
